Test results: PubChem BioAssay AID540256 (National Center for Advancing Translational Sciences (NCATS), 2011)
Out of some 300,000 compounds screened, about 3,700 (1.2%) were called active. The shares of active, inactive and inconclusive entries below differ from those in the screen. The call rests on the fitted dose curve; tested in HEK293 cells. Where the call is inconclusive, the potency comes from a doubtful curve fit.

Test: qHTS for Inhibitors of binding or entry into cells for Lassa Virus; further: nearly all actives have a fitted effect of over 50% in size
Conditions: Lassa virus pseudotype entry inhibition, cell reporter; series mostly up to 37.9 µM
Potency means the concentration at half of the fitted maximal effect.

Q: Which Potency does the source give for `CCCC(=O)Nc1cc(-c2nn(C)c(=O)c3ccccc23)ccc1OC` here?
A: inactive

Q: With `C=CCOc1ccc(CN(C)CC(=O)N(CC(C)C)c2c(N)n(CC(C)C)c(=O)[nH]c2=O)cc1` as the compound, how does the Potency read?
A: inconclusive: 35.5 µM [inhibitor, single point]

Q: With `O=C(OCc1cncs1)c1cccs1` as the compound, how does the Potency read?
A: inactive

Q: With `c1ccc(-c2ncc3c(ccc4ccccc43)n2)cc1` as the compound, how does the Potency read?
A: active: 3.55 µM

Q: With `COc1ccccc1NS(=O)(=O)c1cccc(NC(=S)NCCN2CCOCC2)c1` as the compound, how does the Potency read?
A: inactive

Q: For `Cc1oc(C)c2c(=O)ccc3c(c12)OC(N)=C(C#N)C3c1ccc(F)cc1` (stereo not drawn), which Potency is on record?
A: inactive

Q: With `COc1ccc(-c2nnc(SCC(=O)c3cccs3)o2)cc1` as the compound, how does the Potency read?
A: inactive

Q: For `COc1ccc(S(=O)(=O)N2CCCCC2)cc1NC(=O)[C@@H]1CCCN1C(=O)c1cccs1`, which Potency is on record?
A: inconclusive: 10 µM [inhibitor, partial curve, poor fit]

Q: Which Potency does the source give for `CCc1ccc(NC(=O)Cn2c(-c3cncs3)nc3ccccc32)cc1` here?
A: inactive

Q: For `Cc1noc(C)c1COC(=O)c1ccccc1Sc1ccccc1C#N`, which Potency is on record?
A: inconclusive: 29.1 µM [inhibitor, single point]

Q: For `Cc1ccc(NC(=O)Cn2c(=O)n(Cc3ccc4c(c3)OCO4)c(=O)c3ccc(C(=O)NC4CCCCC4)cc32)c(C)c1`, which Potency is on record?
A: inactive

Q: For `CC(=O)N1c2ccc(S(=O)(=O)N(C)Cc3ccccc3)cc2CC1C` (stereo not drawn), which Potency is on record?
A: inconclusive: 11.2 µM [inhibitor, partial curve, poor fit]

Q: Which Potency does the source give for `COc1cccc(NC(=O)CSc2nc3c(oc4ccccc43)c(=O)[nH]2)c1` here?
A: inconclusive: 15.8 µM [inhibitor, single point]

Q: With `COc1cccc(N(CC(=O)Nc2ccccc2C(=O)N2CCCC2)S(C)(=O)=O)c1` as the compound, how does the Potency read?
A: inconclusive: 4.47 µM [inhibitor, full curve]

Q: With `CCc1ccc(NS(=O)(=O)c2ccc3oc(=O)ccc3c2)cc1` as the compound, how does the Potency read?
A: inactive

Q: With `Cc1ccc(C(=O)C[n+]2cc(-c3ccc(C)cc3)n3c2CCCCC3)cc1` as the compound, how does the Potency read?
A: inconclusive: 15.8 µM [inhibitor, partial curve, poor fit]

Q: With `CC1CCCN(Cc2c(O)ccc3c2O/C(=C\c2ccco2)C3=O)C1` (stereo not drawn) as the compound, how does the Potency read?
A: inconclusive: 12.6 µM [activator, partial curve, poor fit]

Q: For `COc1ccccc1NC(=O)C1CCC(CNS(=O)(=O)c2ccc3c(c2)CC(C)N3C(C)=O)CC1` (stereo not drawn), which Potency is on record?
A: inconclusive: 12.6 µM [inhibitor, partial curve, poor fit]

Q: Which Potency does the source give for `O=C(CCn1c(=O)oc2ccccc21)N1CCN(c2ccccc2Cl)CC1` here?
A: inconclusive: 6.51 µM [inhibitor, single point]

Q: Which Potency does the source give for `C=CCn1c(Cc2cccs2)nnc1SCC(=O)Nc1cc(OC)cc(OC)c1` here?
A: inconclusive: 16.4 µM [inhibitor, single point]

Q: With `CCOC(=O)NCN1C(=O)C2C3C=CC(C3)C2C1=O` (stereo not drawn) as the compound, how does the Potency read?
A: inconclusive: 0.794 µM [inhibitor, partial curve, poor fit]

Q: With `Cc1ccnc(NC(=O)CCC(=O)N(CC(=O)NCc2ccccc2)Cc2ccccc2)c1` as the compound, how does the Potency read?
A: inconclusive: 6.31 µM [inhibitor, single point]

Q: With `COc1ccc(N(CC(=O)NCCSCc2cccc(Cl)c2)S(C)(=O)=O)cc1` as the compound, how does the Potency read?
A: inconclusive: 22.4 µM [inhibitor, partial curve, poor fit]

Q: For `O=C(C1CCCCC1)N1C[C@H](n2cc(-c3ccc(F)cc3)nn2)[C@H](O)C[C@@H]1c1ccccc1`, which Potency is on record?
A: inconclusive: 0.887 µM [inhibitor, full curve, poor fit]

Q: For `CCCCCCN=CC1=C(O)CC(C)(C)CC1=O`, which Potency is on record?
A: inconclusive: 10 µM [inhibitor, partial curve, poor fit]

Q: Which Potency does the source give for `Oc1ccc(/C=N\Nc2cc(N3CCOCC3)nc(N3CCOCC3)n2)c(O)c1` here?
A: inconclusive: 35.5 µM [inhibitor, single point]

Q: With `CCC(=O)N(CCC(Cc1ccccc1)c1ccc2c(c1)OCO2)Cc1ccccc1F` (stereo not drawn) as the compound, how does the Potency read?
A: inconclusive: 14.1 µM [inhibitor, partial curve, poor fit]

Q: With `CCN(Cc1ccccc1)C(=O)c1cccc(S(=O)(=O)N2CCN(c3ccc(F)cc3)CC2)c1` as the compound, how does the Potency read?
A: inconclusive: 11.2 µM [inhibitor, partial curve, poor fit]

Q: With `CCc1ccc(NC(=O)c2cnc3sc(N4CCCC4)nn3c2=O)cc1` as the compound, how does the Potency read?
A: inconclusive: 2.82 µM [inhibitor, partial curve, poor fit]

Q: Which Potency does the source give for `CN(C)S(=O)(=O)c1ccc(C(=O)Nc2ccc(CCC(=O)N3CCCC3)cc2)cc1` here?
A: inactive

Q: For `COc1cccc(-c2ccc(SCc3ccccn3)nn2)c1`, which Potency is on record?
A: inconclusive: 17.8 µM [inhibitor, single point]

Q: Which Potency does the source give for `O=S(=O)(Nc1ccc(-c2ccc(N3CCCC3)nn2)cc1)c1cc(F)ccc1F` here?
A: inactive

Q: With `Cc1cccc(OCC(=O)N2CCN(Cc3ccc([N+](=O)[O-])cc3)CC2)c1` as the compound, how does the Potency read?
A: inactive

Q: For `CCOC(=O)/C(C#N)=C1\CC2CCC1(C)C2(C)C` (stereo not drawn), which Potency is on record?
A: inconclusive: 0.562 µM [inhibitor, partial curve, poor fit]

Q: For `CN1CCN(C(CNC(=O)C(=O)Nc2cccc(Cl)c2)c2ccc3c(c2)OCO3)CC1` (stereo not drawn), which Potency is on record?
A: inactive

Q: For `Cc1ccc(Cl)c(OCCCCN(C)Cc2ccccc2)c1`, which Potency is on record?
A: inconclusive: 20.6 µM [inhibitor, single point]

Q: Which Potency does the source give for `COc1cc(/C=C2\CCC(C3CCCC3)C2=O)cc(OC)c1OC` (stereo not drawn) here?
A: inactive

Q: For `COc1cc(OC)c(Nc2ncnc3onc(-c4cccc(Cl)c4)c23)cc1Cl`, which Potency is on record?
A: inactive

Q: With `O=C(C1CCCCN1S(=O)(=O)c1ccccc1[N+](=O)[O-])N1CCCC1` (stereo not drawn) as the compound, how does the Potency read?
A: inconclusive: 12.6 µM [activator, single point]

Q: Which Potency does the source give for `CCc1nn(C)c2c(=O)c(=O)c2n(C)[nH]1` here?
A: inactive

Q: Which Potency does the source give for `Cc1ccc(C(=O)c2coc3c2C(=O)C(=O)c2ccccc2-3)cc1` here?
A: inactive

Q: Which Potency does the source give for `Cc1ccc(CN(Cc2ccco2)C(=O)c2oc3c(C)c(C)ccc3c2C)cc1` here?
A: inconclusive: 10 µM [inhibitor, partial curve, poor fit]

Q: For `COc1ccc(F)c(CN2CCCC(CNS(=O)(=O)c3cccc4cccnc34)C2)c1` (stereo not drawn), which Potency is on record?
A: inconclusive: 35.5 µM [inhibitor, single point]

Q: Which Potency does the source give for `CC(OC(=O)c1cccs1)C(=O)NC1CC1` (stereo not drawn) here?
A: inconclusive: 35.5 µM [activator, single point]

Q: Which Potency does the source give for `CCCNC(=O)COC(=O)c1cc2c(=O)n3ccccc3nc2s1` here?
A: inconclusive: 12.6 µM [activator, single point]

Q: Which Potency does the source give for `CCOP(=O)(OCC)C(Nc1cccc([N+](=O)[O-])c1)c1ccc(OC)cc1` (stereo not drawn) here?
A: inactive

Q: Which Potency does the source give for `COc1ccc([N+](=O)[O-])cc1NC(=O)C(C)Sc1nc(C)c(C)c(C)n1` (stereo not drawn) here?
A: inactive

Q: For `CC1CCN(c2ccc3nnc(CCC(=O)Nc4ccc(F)cc4)n3n2)CC1`, which Potency is on record?
A: inconclusive: 6.31 µM [inhibitor, partial curve, poor fit]

Q: For `CCN(CC)S(=O)(=O)c1cccc(NC(=O)CCSc2ccc(Cl)cc2)c1`, which Potency is on record?
A: active: 12.6 µM

Q: Which Potency does the source give for `CCC(CC)C(=O)Nc1ccc2nc(SCC(=O)N3c4ccccc4CC3C)sc2c1` (stereo not drawn) here?
A: inconclusive: 2.24 µM [inhibitor, full curve, poor fit]

Q: Which Potency does the source give for `CC(C)Oc1ccc(CNC(=O)c2ccc3nc(Cc4ccccc4)oc3c2)cc1` here?
A: inconclusive: 25.1 µM [inhibitor, partial curve, poor fit]

Q: With `CCOC(=O)c1c(C)sc(-c2c(-c3ccc(OC)c(F)c3)[nH]c3c2c(=O)[nH]c(=O)n3C)c1O` as the compound, how does the Potency read?
A: inactive

Q: For `Cc1ccccc1OCC(=O)N(Cc1cccs1)C1CCS(=O)(=O)C1` (stereo not drawn), which Potency is on record?
A: inconclusive: 0.206 µM [inhibitor, full curve, poor fit]

Q: For `Cc1noc(C)c1COC(=O)C1(c2cccc(F)c2)CCCC1`, which Potency is on record?
A: inconclusive: 8.91 µM [inhibitor, partial curve, poor fit]

Q: With `CCN(CC)S(=O)(=O)c1ccc(N2CCOCC2)c(NC(=O)c2ccccc2F)c1` as the compound, how does the Potency read?
A: inconclusive: 35.5 µM [inhibitor, single point]

Q: Which Potency does the source give for `COc1ccc(CC(=O)Nc2sc(Cc3ccccc3)c(C)c2C(N)=O)cc1` here?
A: inconclusive: 9.2 µM [inhibitor, partial curve, poor fit]

Q: With `CC(Cc1ccccc1)NCc1ccccc1O` (stereo not drawn) as the compound, how does the Potency read?
A: inactive

Q: For `CC(OC(=O)C12CC3CC(CC(O)(C3)C1)C2)C(N)=O` (stereo not drawn), which Potency is on record?
A: inconclusive: 10 µM [inhibitor, partial curve, poor fit]

Q: For `O=C(Nc1cc2c(cc1Cl)OCCO2)c1ccco1`, which Potency is on record?
A: inactive

Q: With `C=CCOc1cccc(C2C(C(=O)c3ccc(C)o3)=C(O)C(=O)N2CCN(C)C)c1` (stereo not drawn) as the compound, how does the Potency read?
A: inactive

Q: Which Potency does the source give for `CCN(CC)S(=O)(=O)c1ccc(N2CCOCC2)c(NC(=O)C23CC4CC(CC(Cl)(C4)C2)C3)c1` here?
A: inconclusive: 35.5 µM [inhibitor, single point]

Q: With `Cc1ccc(-n2c(-c3ccco3)nc3nc4ccccc4nc32)cc1` as the compound, how does the Potency read?
A: inconclusive: 2.91 µM [inhibitor, partial curve, poor fit]

Q: With `O=S(=O)(c1ccc2ccccc2c1)N1CCN(C(=S)Nc2ccc(F)c(Cl)c2)CC1` as the compound, how does the Potency read?
A: inconclusive: 20.6 µM [inhibitor, single point]

Q: For `O=C(N/N=C\C=C\c1ccc2c(c1)OCO2)C1COc2ccccc2O1` (stereo not drawn), which Potency is on record?
A: inactive

Q: For `CC(C)COc1ccccc1C1CC(=O)Nc2cc3c(cc21)OCO3` (stereo not drawn), which Potency is on record?
A: inactive

Q: With `Nc1nc(SCc2ccccc2Cl)nc2nc3c(cc12)CCCC3` as the compound, how does the Potency read?
A: inactive

Q: For `CCN(CC)S(=O)(=O)c1cccc(NC(=O)/C=C/c2cccc([N+](=O)[O-])c2)c1`, which Potency is on record?
A: inconclusive: 22.4 µM [inhibitor, single point]

Q: Which Potency does the source give for `CS(=O)(=O)Nc1ccc(C2=NN(C(=O)c3ccco3)C(c3ccco3)C2)cc1` (stereo not drawn) here?
A: inconclusive: 20 µM [inhibitor, single point]
